Reference: PMC10203710
These are yes or no findings as the source states them, for the method shown. Binding seen in cells or lysates may run through a third protein. Some results given as binding are weak or reduced against the parent protein; the word gives no strength.

Amino acid sequences for entries named in this document (tags omitted).
UniProt Q96RY7: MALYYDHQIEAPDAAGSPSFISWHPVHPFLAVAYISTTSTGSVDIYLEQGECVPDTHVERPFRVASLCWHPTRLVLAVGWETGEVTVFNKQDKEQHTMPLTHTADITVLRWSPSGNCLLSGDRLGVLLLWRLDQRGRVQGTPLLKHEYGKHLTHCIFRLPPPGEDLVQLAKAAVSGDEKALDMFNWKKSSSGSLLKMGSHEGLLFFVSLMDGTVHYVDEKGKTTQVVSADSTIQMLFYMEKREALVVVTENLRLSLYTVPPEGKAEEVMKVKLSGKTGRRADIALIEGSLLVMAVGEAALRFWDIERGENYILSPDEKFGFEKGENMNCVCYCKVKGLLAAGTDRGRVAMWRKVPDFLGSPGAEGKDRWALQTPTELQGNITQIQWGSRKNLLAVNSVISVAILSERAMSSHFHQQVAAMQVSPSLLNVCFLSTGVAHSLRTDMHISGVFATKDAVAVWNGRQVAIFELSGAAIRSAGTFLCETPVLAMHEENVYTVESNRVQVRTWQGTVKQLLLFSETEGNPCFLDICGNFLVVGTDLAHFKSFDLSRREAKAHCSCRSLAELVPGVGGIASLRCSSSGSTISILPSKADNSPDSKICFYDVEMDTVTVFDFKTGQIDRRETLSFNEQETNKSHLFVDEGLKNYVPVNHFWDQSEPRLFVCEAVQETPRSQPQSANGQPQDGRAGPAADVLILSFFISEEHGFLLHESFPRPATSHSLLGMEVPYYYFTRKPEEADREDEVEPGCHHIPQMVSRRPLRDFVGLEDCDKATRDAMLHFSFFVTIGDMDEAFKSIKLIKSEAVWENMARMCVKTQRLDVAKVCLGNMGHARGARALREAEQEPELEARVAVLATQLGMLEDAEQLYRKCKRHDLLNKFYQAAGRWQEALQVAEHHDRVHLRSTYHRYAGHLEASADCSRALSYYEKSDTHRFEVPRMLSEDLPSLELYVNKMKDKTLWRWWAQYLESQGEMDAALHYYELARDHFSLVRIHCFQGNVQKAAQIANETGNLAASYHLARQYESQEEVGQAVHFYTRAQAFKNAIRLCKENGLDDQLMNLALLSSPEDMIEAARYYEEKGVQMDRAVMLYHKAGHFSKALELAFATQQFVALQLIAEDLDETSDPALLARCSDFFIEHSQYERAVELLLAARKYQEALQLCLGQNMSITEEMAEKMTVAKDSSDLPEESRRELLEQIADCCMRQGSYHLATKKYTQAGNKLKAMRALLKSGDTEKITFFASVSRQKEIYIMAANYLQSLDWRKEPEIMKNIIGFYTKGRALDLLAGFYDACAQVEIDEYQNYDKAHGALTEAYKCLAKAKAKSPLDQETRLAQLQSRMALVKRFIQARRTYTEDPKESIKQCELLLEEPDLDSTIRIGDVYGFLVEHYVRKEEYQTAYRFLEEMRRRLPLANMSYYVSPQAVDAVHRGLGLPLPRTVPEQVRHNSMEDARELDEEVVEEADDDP
UniProt Q96EX3: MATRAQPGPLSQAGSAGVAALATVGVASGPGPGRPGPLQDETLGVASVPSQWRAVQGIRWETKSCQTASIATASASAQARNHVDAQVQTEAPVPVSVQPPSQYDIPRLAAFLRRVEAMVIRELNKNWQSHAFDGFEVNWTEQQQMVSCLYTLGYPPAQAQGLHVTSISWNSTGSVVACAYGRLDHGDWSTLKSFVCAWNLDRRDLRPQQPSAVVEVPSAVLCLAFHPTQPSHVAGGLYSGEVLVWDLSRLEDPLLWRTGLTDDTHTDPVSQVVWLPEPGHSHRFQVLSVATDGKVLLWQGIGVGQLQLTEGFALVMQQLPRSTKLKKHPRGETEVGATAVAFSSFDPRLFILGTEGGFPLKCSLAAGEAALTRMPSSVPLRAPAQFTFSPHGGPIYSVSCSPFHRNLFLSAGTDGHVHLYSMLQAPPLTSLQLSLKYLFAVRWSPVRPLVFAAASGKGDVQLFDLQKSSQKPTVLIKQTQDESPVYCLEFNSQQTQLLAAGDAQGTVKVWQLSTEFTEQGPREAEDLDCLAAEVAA
UniProt Q8WVS4: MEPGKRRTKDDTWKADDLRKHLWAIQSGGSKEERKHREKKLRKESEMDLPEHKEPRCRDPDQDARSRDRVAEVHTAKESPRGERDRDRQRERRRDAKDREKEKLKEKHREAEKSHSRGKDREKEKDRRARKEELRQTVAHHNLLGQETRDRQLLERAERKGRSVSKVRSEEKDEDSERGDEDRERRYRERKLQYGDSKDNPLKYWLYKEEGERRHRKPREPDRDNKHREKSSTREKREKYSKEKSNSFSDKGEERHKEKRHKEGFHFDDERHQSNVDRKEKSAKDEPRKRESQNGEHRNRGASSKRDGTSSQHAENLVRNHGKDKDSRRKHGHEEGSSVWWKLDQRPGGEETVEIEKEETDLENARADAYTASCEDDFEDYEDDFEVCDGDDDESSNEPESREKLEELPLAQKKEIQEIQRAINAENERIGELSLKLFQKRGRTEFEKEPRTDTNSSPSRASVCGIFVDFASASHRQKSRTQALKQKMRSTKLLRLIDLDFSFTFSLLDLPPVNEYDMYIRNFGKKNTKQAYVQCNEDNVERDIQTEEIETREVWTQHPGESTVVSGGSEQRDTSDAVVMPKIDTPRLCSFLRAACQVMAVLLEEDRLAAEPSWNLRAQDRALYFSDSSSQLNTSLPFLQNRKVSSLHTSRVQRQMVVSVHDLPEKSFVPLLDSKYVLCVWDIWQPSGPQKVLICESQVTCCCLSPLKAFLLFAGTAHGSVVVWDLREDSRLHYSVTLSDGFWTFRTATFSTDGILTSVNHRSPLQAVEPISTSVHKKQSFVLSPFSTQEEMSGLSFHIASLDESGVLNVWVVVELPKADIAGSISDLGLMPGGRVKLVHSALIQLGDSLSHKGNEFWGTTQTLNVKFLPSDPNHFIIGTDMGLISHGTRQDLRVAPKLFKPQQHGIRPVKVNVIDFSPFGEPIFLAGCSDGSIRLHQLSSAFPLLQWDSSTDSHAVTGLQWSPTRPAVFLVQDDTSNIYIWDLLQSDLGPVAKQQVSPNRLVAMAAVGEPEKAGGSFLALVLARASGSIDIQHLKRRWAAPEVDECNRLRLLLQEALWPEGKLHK

Legend:
[1] = molecular target: IFT140 (human (endogenous in HEK-293T)) (UniProt Q96RY7); assay: co-IP; HEK-293T cells transfected with Flag-human WDR60 or Flag-human WDR34; lysate in 1% Triton X-100 buffer (20 mM Tris pH 7.5, 150 mM NaCl); IP with anti-IFT88 or anti-IFT140 antibody at 4°C overnight, Protein A + G agarose beads, washed in cold PBS; WDR60 or WDR34 detected by western blot
[2] = molecular target: T1, IFT88 (human (endogenous in HEK-293T)) (UniProt Q13099); assay: as above
T1 sequence: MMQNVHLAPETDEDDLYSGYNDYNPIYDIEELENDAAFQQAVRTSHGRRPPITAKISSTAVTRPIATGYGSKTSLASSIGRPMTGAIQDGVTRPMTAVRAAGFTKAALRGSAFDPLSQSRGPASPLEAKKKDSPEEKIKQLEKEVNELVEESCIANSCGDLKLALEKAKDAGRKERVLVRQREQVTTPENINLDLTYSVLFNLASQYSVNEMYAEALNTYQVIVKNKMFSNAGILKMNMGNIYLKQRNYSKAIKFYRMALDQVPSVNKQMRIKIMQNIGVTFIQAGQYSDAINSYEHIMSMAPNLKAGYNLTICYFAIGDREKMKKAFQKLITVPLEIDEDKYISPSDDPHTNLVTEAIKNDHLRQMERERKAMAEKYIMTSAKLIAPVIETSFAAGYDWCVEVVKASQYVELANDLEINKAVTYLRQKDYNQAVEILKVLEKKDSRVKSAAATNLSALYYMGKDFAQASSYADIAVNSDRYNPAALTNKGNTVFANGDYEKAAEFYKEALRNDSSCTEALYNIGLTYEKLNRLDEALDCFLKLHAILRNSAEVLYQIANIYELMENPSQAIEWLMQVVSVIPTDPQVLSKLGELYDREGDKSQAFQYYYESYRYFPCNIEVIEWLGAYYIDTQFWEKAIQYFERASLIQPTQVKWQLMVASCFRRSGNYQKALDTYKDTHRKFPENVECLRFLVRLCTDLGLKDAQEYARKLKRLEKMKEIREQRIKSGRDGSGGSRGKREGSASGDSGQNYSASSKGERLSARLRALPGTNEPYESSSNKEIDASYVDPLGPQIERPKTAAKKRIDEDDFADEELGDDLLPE

| Substance | binding [1] | binding [2] |
| --- | --- | --- |
| Flag-human WDR34 (WD repeat domain 34) (from UniProt Q96EX3 1-536) | binds | binds |
| Flag-human WDR60 (WD repeat domain 60) (from UniProt Q8WVS4 1-1066) |  | binds |
